PubChem BioAssay AID2685 (National Center for Advancing Translational Sciences (NCATS), 2010)
Where “and” joins values, the source holds several entries; their conditions need not be identical. Identical values can stand only once. This is one part of the list. Shown are side measurements of this screen, not its main read-out; they come without a call. Compounds called inactive in the main read-out are mostly missing here. Words in brackets tell the shape of the fitted curve; partial curves, single points and poor fits give uncertain potencies.

Assay: qHTS Assay for Lipid Storage Modulators in Drosophila S3 Cells;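 on cell number change: cells counted by Cell Tracker Red CMTPX staining in the red channel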
Settings: BODIPY lipid droplet fluorescence, 18-24 h; for cell number change: measured here: cell count max response, cells fed with added oleic acid
In short: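 Drosophila S3 cells loaded with oleic acid (400 uM, as added) and compounds at several concentrations; lipid droplets imaged by 488-nm laser-scanning cytometry, 500–530 nm intensity and object ratio to cell channel. Percent activity normalized to 20 uM Triacsin C.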

[1] = measured here: lipid fluorescence (Fed channel) AC50, cells fed with added oleic acid
[2] = measured here: cell number channel AC50, cells fed with added oleic acid

Row | SMILES | cell number change | AC50 [1] | AC50 [2]
1 | O=C(NCC1CCCO1)c1ccc2[nH]c3c(c2c1)CCCC3 (configuration not stated) | -10.1% | 6.51 µM [falling, partial curve, poor fit] | 
2 | Fc1ccc(C(c2nnnn2C2CCCC2)N2CCN(Cc3ccccc3)CC2)cc1 (configuration not stated) | -0.838% | 0.00461 µM [rising, full curve, poor fit] | 
3 | O=C(CSCC(=O)c1ccccc1)Nc1ccccc1Cl | 20.7% | 29.1 µM [rising, single point] | 
4 | COc1ccc(/C(N)=N/O)c(OC)c1 | -99.8% | 18.4 µM [falling, partial curve] | 18.4 µM [falling, partial curve]
5 | CC1CN(CC(=O)Nc2ccc([N+](=O)[O-])cc2Br)CC(C)O1 (configuration not stated) | -5.19% | 6.51 µM [falling, single point] | 
6 | CCN1CCN(CCn2c(=S)[nH]c3cc4c(cc3c2=O)OCO4)CC1 |  | 0.164 µM [rising, full curve, poor fit] | 0.411 µM [rising, full curve]
7 | Cn1c(SCC(=O)NC2CC2)nnc1-c1ccco1 | 3.11% | 1.03 µM [falling, full curve] | 
8 | O=C1CN(C(=O)c2ccc(Br)o2)C(c2ccc(F)cc2)c2cc(Cl)ccc2N1 (configuration not stated) | 21.7% |  | 3.66 µM [rising, single point]
9 | CCC(=O)N1CCc2cc(S(=O)(=O)N3CCCCCC3)ccc21 | -33.7% | 6.51 µM [falling, single point] | 0.0184 µM [falling, full curve, poor fit]
10 | Cn1ccnc1SCC(=O)Nc1ccc(F)c([N+](=O)[O-])c1 | 20.5% | 0.651 µM [rising, full curve, poor fit] | 0.461 µM [rising, full curve, poor fit]
11 | O=C(c1ccco1)N1CCN(C2=NS(=O)(=O)c3ccccc32)CC1 | 13.1% | 5.17 µM [falling, partial curve, poor fit] | 
12 | CCOC(=O)c1c(-c2ccc(-c3ccccc3)cc2)csc1NC(=O)CCN1CCOCC1 | -0.142% | 0.103 µM [rising, full curve, poor fit] | 
13 | Cc1cc2c(cc1C)NC(=O)CC(C(F)(F)C(F)(F)C(F)(F)F)=N2 | -33.3% | 29.1 µM [falling, single point] | 29.1 µM [falling, single point]
14 | Cc1cccc(Nc2nnc(SCC(=O)Nc3cccc(S(=O)(=O)N4CCCCC4)c3)s2)c1 | -22.2% | 29.1 µM [falling, single point] | 
15 | CSc1nc2ccc(NC(=O)C3CC(=O)N(Cc4ccco4)C3)cc2s1 (configuration not stated) | -16% | 0.411 µM [rising, partial curve, poor fit] | 
16 | CCCc1nnc(NC(=O)COc2ccc3c(c2)OCO3)s1 | -0.427% |  | 
17 | COc1cc(N/N=C(\C)c2ccc(O)c(C)c2)nc(-c2ccccc2)n1 | -51.9% |  | 29.1 µM [falling, single point]
18 | COc1ccc(N2CCN(C(=O)c3cccc(NS(=O)(=O)c4cccc(F)c4)c3)CC2)cc1 | -28.2% | 1.64 µM [rising, partial curve] | 
19 | CN(C)S(=O)(=O)c1ccc2c(c1)C(CC(=O)O)OC2=O (configuration not stated) | -14.3% |  | 
20 | COc1cccc(CNC(=O)CCCn2nc(C)c3c(C)n(-c4ccc(C)cc4)nc3c2=O)c1OC | 1.19% |  | 3.66 µM [rising, single point]

Row | SMILES | cell number change | AC50 [1] | AC50 [2]
21 | CCc1cccc(OCC(=O)N(C)CC(=O)Nc2cccc(F)c2)c1 | 30.7% |  | 18.4 µM [rising, single point]
22 | COc1ccc(C(C)=O)cc1CSc1ccc(S(=O)(=O)N2CCCCC2)cn1 | -17.2% |  | 
23 | CCOc1ccc(S(=O)(=O)N2CCC(C(=O)NCc3ccccn3)CC2)cc1Cl | 17.9% | 4.11 µM [rising, full curve] | 
24 | CCn1c(SCC(=O)NCc2ccc3c(c2)OCO3)nnc1-c1cccs1 |  |  | 6.51 µM [falling, single point]
25 | CCCc1[nH]nc2c1C(c1ccc(OC)c(Cn3nnc4ccccc43)c1)C(C#N)=C(N)O2 (configuration not stated) | 3.03% | 0.116 µM [rising, full curve, poor fit] | 
26 | C=C(C)c1cccc(C(C)(C)NC(=O)NC(c2ccccc2)c2ccc(OC)cc2)c1 (configuration not stated) | 21.3% | 1.16 µM [falling, single point] | 0.651 µM [falling, single point]
27 | COc1ccc(S(=O)(=O)NNC(=O)Nc2ccc(F)cc2F)c(OC)c1 | -51.1% |  | 
28 | C#CCn1c(=NC(=O)CN2C(=O)CCC2=O)sc2cc(S(N)(=O)=O)ccc21 | 12% |  | 
29 | CC(C)(C)C(=O)Nc1ccccc1-c1nc2ccccc2[nH]c1=O | -2.55% | 29.1 µM [rising, single point] | 
30 | O=[N+]([O-])c1ccccc1CN1CCN(S(=O)(=O)Cc2ccccc2)CC1 | 57.1% |  | 14.6 µM [rising, partial curve]
31 | CCc1noc(C)c1C(=O)Nc1nc(-c2ccc(Cl)cc2Cl)c(C)s1 | 36.5% | 23.1 µM [rising, single point] | 2.59 µM [rising, full curve]
32 | CCOc1ccccc1C(=O)N(Cc1cccs1)C1CCS(=O)(=O)C1 (configuration not stated) | -11% | 20.6 µM [falling, single point] | 
33 | CCCC(=O)NCCc1nc2ccccc2n1C | 3.59% | 29.1 µM [falling, single point] | 
34 | C#CCOc1nc(Nc2cccc([N+](=O)[O-])c2)nc(OCC#C)n1 | 0.475% | 0.231 µM [rising, full curve, poor fit] | 
35 | CCOc1cccc(C(=O)Nc2cc(-c3nn4c(C)nnc4s3)ccc2C)c1 | 8.23% | 0.184 µM [rising, full curve, poor fit] | 
36 | O=C(c1ccc(COc2ccccc2Cl)o1)N1CCOCC1 | 34% |  | 13 µM [rising, partial curve]
37 | Cc1cc(NC(=O)CSc2ccccc2)no1 | 1.06% |  | 
38 | O=C1/C(=C/c2ccco2)CCc2ccccc21 | -11.8% | 6.51 µM [rising, partial curve, poor fit] | 
39 | Cc1ccc(-n2c(SCC(N)=O)nc3c(c2=O)C2(CCCC2)Cc2ccccc2-3)cc1 | 12.4% | 11.6 µM [rising, partial curve, poor fit] | 
40 | CCOC(=O)C(CCCCP(=O)(c1ccccc1)c1ccccc1)(NC(C)=O)C(=O)OCC | 19% | 0.092 µM [falling, full curve, poor fit] | 

Row | SMILES | cell number change | AC50 [1] | AC50 [2]
41 | CCOC(=O)COc1ccc(S(=O)(=O)N2CCN(c3ccc(F)cc3)CC2)cc1 | -15.3% |  | 
42 | CCOC(=O)C1=C(C)NC(=S)N(C(C)=O)C1c1ccc(OC)c(OC)c1 (configuration not stated) | 18.4% | 0.206 µM [rising, full curve] | 
43 | COc1ccc(NC(=O)c2ccc(NC(=O)c3ccco3)cc2)c(OC)c1 | -7.69% | 0.326 µM [falling, full curve, poor fit] | 
44 | Cc1cc(-c2ccccc2)c(C#N)c(N)n1 | -29.3% | 0.146 µM [falling, full curve, poor fit] | 0.461 µM [falling, full curve]
45 | CSCCC(NC(=O)COc1ccccc1)C(=O)N1CCCCC1 (configuration not stated) | 20.7% | 10.3 µM [rising, partial curve] | 
46 | CCOC(=O)C1CCCN(C(=O)c2ccc(C(=O)c3ccccc3)cc2)C1 (configuration not stated) | -51.3% | 4.11 µM [falling, full curve] | 4.11 µM [falling, full curve]
47 | Cc1ccc(NC2CCCN(C(=O)c3cccnc3)C2)cc1C (configuration not stated) | -4.11% | 29.1 µM [rising, single point] | 
48 | Cc1ccc(S(=O)(=O)N2c3ccccc3NC(=O)C2CC(=O)Nc2ccccc2)cc1 (configuration not stated) | 7.44% | 29.1 µM [rising, single point] | 0.0058 µM [falling, full curve, poor fit]
49 | COc1cccc(-c2ccc3ncnc(NCc4cccc(C)c4)c3c2)c1 | -18.1% and 27.6% | 2.31 µM [rising, partial curve, poor fit] | 
50 | COCc1nnc(NC(=O)c2cc(C(=O)OC)cc([N+](=O)[O-])c2)s1 | 10.8% | 0.58 µM [falling, single point] | 
51 | CCCNC(=O)C(Cc1cccc(OC)c1)NC(=O)c1ccc(C(C)(C)C)cc1 (configuration not stated) | -32.2% |  | 29.1 µM [falling, single point]
52 | O=C(Oc1ccccc1)c1cc2ccccc2o1 | 13.5% |  | 
53 | COc1ccc(NC(=O)/C(C#N)=C/c2ncc([N+](=O)[O-])n2C)c(OC)c1 | 15.4% | 2.91 µM [rising, full curve] | 
54 | O=C(Nc1cccc(S(=O)(=O)N2CCCCC2)c1)c1cc([N+](=O)[O-])ccc1N1CCOCC1 |  | 0.13 µM [rising, full curve, poor fit] | 
55 | CCN(c1ccccc1)S(=O)(=O)c1cccc(C(=O)NCc2ccccn2)c1 |  |  | 6.51 µM [rising, single point]
56 | Cc1ccc(-n2ccnc2SCC(=O)O)cc1C | 1.29% | 6.51 µM [falling, single point] | 
57 | COC(=O)c1ccncc1C(=O)Nc1ccc(OC)cc1 | 4.15% | 29.1 µM [falling, partial curve] | 
58 | O=C(COc1ccc(Cl)cc1)N/N=C/c1cccc2cccnc12 | -13.8% |  | 
59 | CCOC(=O)c1cc(-c2ccc(OC(F)F)cc2)nc2c1c(=O)[nH]c(=O)n2C | -25% |  | 
60 | CCN(CC(=O)Nc1ccc(NC(C)=O)cc1)C(=O)c1cc(-c2ccccc2)nn1-c1ccccc1 | 30.9% | 20.6 µM [rising, partial curve, poor fit] | 13 µM [rising, single point]
